The other results are listed elsewhere or left out. Further columns of the screen follow, without active or inactive calls. The list favours compounds with an active or inconclusive main result. Words in brackets tell the shape of the fitted curve; partial curves, single points and poor fits give uncertain potencies.
Assay: Cell signaling CRE-BLA (Fsk stim)
Conditions: CHO CRE-bla reporter (cAMP response element driving beta-lactamase), forskolin EC10, beta-lactamase ratio; measured here: 460 nm blue channel
Summary of the method: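 CRE-bla CHO cells stimulated with EC10 NKH 477 (water-soluble forskolin) and compound titrations, 3 h at 37C; beta-lactamase read with CCF4 after 2 h at room temperature. Activity from 460/530 nm emission ratio, AC50 values for positive or negative modulation.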

| SMILES | AC50 |
| --- | --- |
| COC(=O)c1c(NC(=O)CSc2nnc(-c3cccnc3)n2Cc2ccco2)sc(C)c1C | 12.6 µM [rising, partial curve] |
| Cc1csc(SCC(=O)Nc2ccccn2)n1 | 15.8 µM [falling, single point] |
| CCCCCCNC(=O)c1c(N)n(/N=C/c2ccco2)c2nc3ccccc3nc12 | 15.8 µM [rising, partial curve] |
| O=C(c1ccco1)N1CCN(S(=O)(=O)c2ccc3c(c2)CCN3C(=O)C2CC2)CC1 | 12.6 µM [rising, single point] |
| N#Cc1ccccc1-n1c(N)c(C(=O)N2CCCC2)sc1=S | 0.316 µM [falling, partial curve] |
| COc1ccc(CCCc2nnc(SCC(=O)Nc3cc(C)c(C)cc3Br)o2)cc1 | 2 µM [rising, partial curve] |
| COc1ccc(C2=CC(c3c(C)nn(-c4ccccc4)c3Cl)n3nnnc3N2)cc1OC (stereo not drawn) | 10 µM [rising, partial curve] |
| CC(C)COc1cc(=O)[nH]c(SCC(C)C)n1 | 10 µM [rising, partial curve] |
| O=c1c(-c2ccc(F)cc2)nc2cnc(N3CCNCC3)nc2n1C1CC1 | 12.6 µM [rising, partial curve] |
| CCOC(=O)N1CCN(C(=O)CCc2c(C)nc3c(c(C)nn3-c3ccc(C)c(C)c3)c2C)CC1 | 0.0126 µM [falling, full curve, poor fit] |
| COc1ccc(N2CCN(CC(=O)Nc3nc4c(s3)CC(C)CC4)CC2)cc1 (stereo not drawn) | 0.126 µM [falling, single point] |
| CCCc1nc2oc(C(=O)OCC)c(N)c2c2c1COC(C)(C)C2 | 1.26 µM [rising, full curve] |
| CCOC(=O)N1CCC(Nc2c(NCCN3CCN(Cc4ccccc4)CC3)c(=O)c2=O)CC1 | 31.6 µM [falling, partial curve] |
| O=C(Nc1ccc2c(c1)OCO2)c1cnn2cccnc12 | 25.1 µM [rising, single point] |
| COc1ccc(C2c3c(oc4c(C)cc(C)cc4c3=O)C(=O)N2Cc2cccnc2)cc1OC (stereo not drawn) | 3.16 µM [rising, single point] |
| Cc1ccc2c(c1)c(C)c(C)n2CC(O)Cn1nc(C)c(Br)c1C (stereo not drawn) | 2.51 µM [rising, full curve] |
| Cc1cc(O)c(C=Nc2cccc(Cl)c2)c(=O)o1 | 12.6 µM [rising, single point] |
| COc1ccc2[nH]cc(CCNc3ncnc4ccc(-c5c(C)noc5C)cc34)c2c1 | 3.16 µM [rising, full curve] |
| O=C(CN1CCN(CCC(=O)Nc2ccccc2F)CC1)Nc1ccc(Cl)cc1 | 0.0794 µM [falling, full curve] |
| Cc1csc2nc(=O)c3ccccc3n12 | 5.01 µM [falling, single point] |
| Nn1c(SCc2cn3ccsc3n2)nnc1-c1ccncc1 | 5.01 µM [falling, single point] |
| CCCn1c(C)nc2c(NCCOC)nc(C)nc21 | 12.6 µM [rising, partial curve] |
| Cc1ccc(-c2nnnn2CS(=O)(=O)c2ccccc2)cc1 | 0.1 µM [falling, partial curve, poor fit] |

| SMILES | AC50 |
| --- | --- |
| COCCNC(=O)C(c1cccs1)N(C(=O)Cn1nnc2ccccc21)c1ccc2c(c1)OCO2 (stereo not drawn) | 0.316 µM [falling, partial curve] |
| CCOc1cc(NC(=O)c2ccco2)c(OCC)cc1NC(=O)CCc1ccccc1OC | 12.6 µM [rising, partial curve] |
| CNc1nc2sc3c(c2c(=O)n1C)CC(C)(C)SC3 | 12.6 µM [rising, single point] |
| COc1ccc(C(=O)NCc2nc3ccccc3[nH]2)cc1OC | 10 µM [rising, single point] |
| Cn1c(SCc2nnc(-c3ccccc3Br)o2)nc2sc3c(c2c1=O)CCC3 | 3.98 µM [rising, full curve, poor fit] |
| N#Cc1nc(COc2ccc(F)cc2)oc1N1CCC(Cc2ccccc2)CC1 | 0.794 µM [rising, full curve] |
| O=C(CSc1ncn[nH]1)NC1CC2CCC1C2 (stereo not drawn) | 0.00398 µM [falling, full curve, poor fit] |
| COc1ccc(OC)c(CN2CCN(c3ccccc3OC)CC2)c1 | 0.00316 µM [falling, full curve] |
| Cc1cc(NC(=O)c2cccc(S(=O)(=O)N3CC(c4ccccc4)CC3=O)c2)no1 (stereo not drawn) | 10 µM [falling, single point] |
| CCn1c(SCC(=O)O)nnc1-c1cc2c(C)nn(-c3ccccc3)c2s1 | 15.8 µM [rising, single point] |
| COC(=O)c1cccc(C(=O)Nc2ccc(C)cc2)n1 | 0.316 µM [falling, full curve] |
| O=C(C1=C(O)C(=O)N(CCN2CCOCC2)C1c1ccccc1)c1cccs1 (stereo not drawn) | 25.1 µM [rising, single point] |
| CC(C)OCCCn1c(=NC(=O)c2ccncc2)c(C#N)cc2c(=O)n3ccccc3nc21 | 10 µM [rising, partial curve] |
| O=C(c1ccco1)N1CCN(C(c2ccccc2)c2nnnn2Cc2cccs2)CC1 (stereo not drawn) | 3.16 µM [rising, single point] |
| CCN(CC)S(=O)(=O)c1ccc(-c2nnc(SCc3nnc(-c4ccccc4)o3)o2)cc1 | 5.01 µM [rising, single point] |
| COc1ccc(C2(C(=O)O)CCCC2)cc1 | 25.1 µM [rising, single point] |
| COc1ccc(-c2ccc(-c3noc(-c4ccccc4OC)n3)c(OC)n2)cc1 | 7.94 µM [rising, partial curve] |
| O=C1CC(c2ccc3c(c2)OCO3)c2cc3c(cc2N1)OCCO3 (stereo not drawn) | 25.1 µM [rising, single point] |
| CCOc1nc(OCC)nc(N2CCC(C)CC2)n1 | 10 µM [rising, partial curve] |
| Cc1[nH]c2ccc(-c3nnc(SCC(=O)N4CCCc5ccccc54)o3)cc2c1C | 0.01 µM [falling, full curve, poor fit] |
| CSc1ccc(-c2c(C#N)c(N)nc3c2c(C)nn3-c2ccccc2)cc1 | 10 µM [rising, partial curve] |
| c1ccc2c(c1)CCN(c1ncnc3nc[nH]c13)C2 | 2.51 µM [rising, full curve] |
| O=S(=O)(c1cccc2c(Cl)cccc12)N1CCCNCC1 | 31.6 µM [falling, single point] |

Of the compounds above, these contain an aryl methoxy group:

| SMILES | AC50 |
| --- | --- |
| COc1ccc(CCCc2nnc(SCC(=O)Nc3cc(C)c(C)cc3Br)o2)cc1 | 2 µM [rising, partial curve] |
| COc1ccc(C2=CC(c3c(C)nn(-c4ccccc4)c3Cl)n3nnnc3N2)cc1OC (stereo not drawn) | 10 µM [rising, partial curve] |
| COc1ccc(N2CCN(CC(=O)Nc3nc4c(s3)CC(C)CC4)CC2)cc1 (stereo not drawn) | 0.126 µM [falling, single point] |
| COc1ccc(C2c3c(oc4c(C)cc(C)cc4c3=O)C(=O)N2Cc2cccnc2)cc1OC (stereo not drawn) | 3.16 µM [rising, single point] |
| COc1ccc2[nH]cc(CCNc3ncnc4ccc(-c5c(C)noc5C)cc34)c2c1 | 3.16 µM [rising, full curve] |
| CCOc1cc(NC(=O)c2ccco2)c(OCC)cc1NC(=O)CCc1ccccc1OC | 12.6 µM [rising, partial curve] |
| COc1ccc(C(=O)NCc2nc3ccccc3[nH]2)cc1OC | 10 µM [rising, single point] |
| COc1ccc(OC)c(CN2CCN(c3ccccc3OC)CC2)c1 | 0.00316 µM [falling, full curve] |
| COc1ccc(C2(C(=O)O)CCCC2)cc1 | 25.1 µM [rising, single point] |
| COc1ccc(-c2ccc(-c3noc(-c4ccccc4OC)n3)c(OC)n2)cc1 | 7.94 µM [rising, partial curve] |

(further entries)

| SMILES | AC50 |
| --- | --- |
| C=C(C)COc1ccc(-c2n[nH]c(C)c2-c2ccccc2)c(O)c1 | 31.6 µM [falling, single point] |
| CCOC(=O)C1=C(C)NC(=O)N(C(C)=O)C1c1ccc(Cl)cc1 (stereo not drawn) | 10 µM [falling, partial curve, poor fit] |
| N#CCCN1CCN(C(=S)c2ccc(-c3ccc(Cl)cc3)o2)CC1 | 12.6 µM [rising, single point] |
| CCN(CC)CCOc1c(Br)ccc2c1sc1nc3n(c(=O)c12)CCC3 | 10 µM [rising, partial curve] |
| COCCn1c(=O)c(C)nc2cnc(Oc3ccc(OC)cc3)nc21 | 12.6 µM [rising, partial curve] |
| CCOC(=O)CNC(=O)c1nn(-c2ccc(OCC)cc2)c(=O)c2ccccc12 | 10 µM [rising, partial curve] |
| Cc1oc(-c2ccccc2F)nc1CN1CCC(C(=O)NC2CCCCCCC2)CC1 | 25.1 µM [rising, single point] |
| CCOC(=O)c1cnc(-n2cc(C)cn2)nc1Nc1ccccc1OCC | 3.16 µM [rising, partial curve] |
| O=C(COc1ccc(Cl)cc1)OCC(=O)N1CCCCCC1 | 0.1 µM [falling, single point] |
| CN(CCc1ccccn1)c1ncnc2[nH]ncc12 | 0.1 µM [falling, single point] |
| Cc1cc(Nc2ccccc2Br)n2nc(C)nc2n1 | 12.6 µM [rising, partial curve] |
| O=C(NCc1n[nH]c(=S)n1-c1ccccc1)c1ccco1 | 0.00398 µM [falling, full curve, poor fit] |
| CCOc1ccc(CCNC(=O)C2CCN(c3nn4c(=O)cc(C)nc4s3)CC2)cc1 | 20 µM [rising, single point] |
| Cc1ccc(C(=O)Nc2cnc3sc(C)nn3c2=O)cc1 | 0.00316 µM [falling, full curve, poor fit] |
| COc1ccc(C(=O)CN2CCN(c3ccc(F)cc3)CC2)cc1OC | 0.00398 µM [falling, full curve, poor fit] |
| CN(Cc1nc(-c2cccnc2)no1)S(=O)(=O)c1ccc2ccccc2c1 | 12.6 µM [rising, single point] |
| Cc1cc(C(=O)N(C2CCCCC2)C2CCCCC2)no1 | 0.0251 µM [falling, full curve, poor fit] |
| COc1cc(C(=O)OCC(=O)NCc2ccco2)cc(OC)c1OC | 12.6 µM [rising, single point] |
| O=C(CN1CCOCC1)Nc1ccc(-c2nc3ccccc3[nH]2)cc1 | 0.794 µM [falling, full curve, poor fit] |
| Cc1ccc2[nH]c(=O)c(C(c3nnnn3C(C)(C)C)N(Cc3ccco3)CC3CCCO3)cc2c1 (stereo not drawn) | 3.16 µM [falling, single point] |
| COCc1cc(=O)[nH]c(/N=C(\N)Nc2ccc(C)cc2)n1 | 10 µM [rising, partial curve] |
| COc1cccc(Oc2cn[nH]c2-c2ccc(OC)cc2O)c1 | 7.94 µM [falling, partial curve] |

2 compounds picked at random from those above:

| SMILES | AC50 |
| --- | --- |
| CCOC(=O)N1CCN(C(=O)CCc2c(C)nc3c(c(C)nn3-c3ccc(C)c(C)c3)c2C)CC1 | 0.0126 µM [falling, full curve, poor fit] |
| CCOC(=O)C1=C(C)NC(=O)N(C(C)=O)C1c1ccc(Cl)cc1 (stereo not drawn) | 10 µM [falling, partial curve, poor fit] |

— PubChem BioAssay AID662 (National Center for Advancing Translational Sciences (NCATS), 2007)
